{
  "source": "patent US10292388B2",
  "about": "“Malononitrile compounds for controlling animal pests” (BASF SE, priority 2012, dated 2019)",
  "format_in_all_cases": "in vivo",
  "key": {"[1]": {"test_system": "yellow fever mosquito (Aedes aegypti)", "conditions": "2500 ppm; freshly hatched larvae in tap water; larval mortality after 2 days", "how_it_was_run": "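Freshly hatched larvae (5-15 per well) in 200 μl tap water; compounds formulated in 75% water/25% DMSO and sprayed at 2.5 μl per well at several concentrations, two replicates. Incubated 2 days at 28±1° C., 80±5% RH; larval mortality scored visually.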"}, "[2]": {"test_system": "Mediterranean fruitfly (Ceratitis capitata)", "test": "Mediterranean fruitfly microtiter plate diet test", "conditions": "2500 ppm; sprayed onto insect diet with eggs; egg and larval mortality after 5 days"}, "[3]": {"test_system": "Green Soldier Stink Bug (Nezara viridula)", "test": "Green soldier stink bug test on sprayed soybean pods", "conditions": "500 ppm, 3rd instar, after 5 days"}, "[4]": {"test_system": "boll weevil (Anthonomus grandis)", "test": "Boll weevil microtiter plate diet test", "conditions": "2500 ppm; sprayed onto insect diet with eggs; egg and larval mortality after 5 days", "description": "B.9 Boll Weevil (Anthonomus grandis)\nFor evaluating control of boll weevil (Anthonomus grandis) the test unit consisted of 24-well-microtiter plates containing an insect diet and 20-30 A. grandis eggs. The compounds were formulated using a solution containing 75% v/v water and 25% v/v DMSO. Different concentrations of formulated compounds were sprayed onto the insect diet at 20 μl, using a custom built micro atomizer, at two replications. After application, microtiter plates were incubated at about 23±1° C. and about 50±5% relative humidity for 5 days. Egg and larval mortality was then visually assessed."}, "[5]": {"test_system": "Orchid thrips (dichromothrips corbetti)", "test": "Orchid thrips floral-immersion test", "conditions": "500 ppm, adult thrips, after 4 days"}, "[6]": {"test_system": "green peach aphid (Myzus persicae)", "test": "Green peach aphid systemic test, artificial diet under membrane", "conditions": "test solution 2500 mg/L in aphid diet; adult aphids; 3 days"}, "[7]": {"test_system": "Rice Brown Plant Hopper (Nilaparvata lugens)", "test": "Rice brown plant hopper test on sprayed rice seedlings", "conditions": "300 ppm, adults, after 72 hours"}, "[8]": {"test_system": "Cowpea Aphid (aphis craccivora)", "test": "Cowpea aphid spray test on potted cowpea plants", "conditions": "500 ppm; sprayed cowpea plants; population reduction assessed after 24, 72 and 120 hours"}},
  "note": "Some entries share one result that the patent states for a list of compounds.",
  "data": [
    {"smiles": "CCC(c1ccccc1)C(C#N)(C#N)c1cc(F)c(F)c(F)c1", "note": "(centres unmarked) [II-187]", "values": [
      {"measurement": "mortality in comparison with untreated controls", "setting": "[1]", "value": "at least 75%"},
      {"measurement": "mortality in comparison with untreated controls", "setting": "[2]", "value": "at least 75%"},
      {"measurement": "mortality in comparison with untreated controls", "setting": "[3]", "value": "at least 75%"}
    ]},
    {"smiles": "CSc1ccc(CC(C#N)(C#N)c2ccc(F)cc2)cc1", "note": "[II-176]", "values": [
      {"measurement": "mortality in comparison with untreated controls", "setting": "[1]", "value": "at least 75%"},
      {"measurement": "mortality in comparison with untreated controls", "setting": "[4]", "value": "at least 75%"},
      {"measurement": "mortality in comparison with untreated controls", "setting": "[5]", "value": "at least 75%"}
    ]},
    {"smiles": "C#Cc1ccc(CC(C#N)(C#N)c2ccc3c(c2)OCO3)cc1", "note": "[II-134]", "values": [
      {"measurement": "mortality", "setting": "[6]", "value": "at least 75%"}
    ]},
    {"smiles": "CC(c1ccc(C(F)(F)F)cc1)C(C#N)(C#N)c1ccccc1F", "note": "(centres unmarked) [II-83]", "values": [
      {"measurement": "mortality in comparison with untreated controls", "setting": "[7]", "value": "at least 75%"},
      {"measurement": "mortality in comparison with untreated controls", "setting": "[1]", "value": "at least 75%"},
      {"measurement": "mortality in comparison with untreated controls", "setting": "[5]", "value": "at least 75%"}
    ]},
    {"smiles": "COC(=O)c1ccc(C(C#N)(C#N)Cc2ccc(C(F)(F)F)cc2)cc1", "note": "[II-140]", "values": [
      {"measurement": "mortality in comparison with untreated controls", "setting": "[8]", "value": "at least 75%"},
      {"measurement": "mortality in comparison with untreated controls", "setting": "[4]", "value": "at least 75%"}
    ]},
    {"smiles": "CN(C)C(=O)Sc1ccc(CC(C#N)(C#N)c2ccc(F)cc2)cc1", "note": "[II-196]", "values": [
      {"measurement": "mortality in comparison with untreated controls", "setting": "[8]", "value": "at least 75%"}
    ]},
    {"smiles": "N#CC(C#N)(Cc1ccc(C(F)(F)F)cc1)c1cc(F)cc(C(F)(F)F)c1", "note": "[II-117]", "values": [
      {"measurement": "mortality in comparison with untreated controls", "setting": "[1]", "value": "at least 75%"},
      {"measurement": "mortality in comparison with untreated controls", "setting": "[5]", "value": "at least 75%"}
    ]},
    {"smiles": "C#Cc1ccc(CC(C#N)(C#N)c2ccc3c(c2)OCCO3)cc1", "note": "[II-137]", "values": [
      {"measurement": "mortality", "setting": "[6]", "value": "at least 75%"}
    ]},
    {"smiles": "N#CC(C#N)(Cc1ccc(C(F)(F)F)cc1)c1cc(C(F)(F)F)cc(C(F)(F)F)c1", "note": "[II-125]", "values": [
      {"measurement": "mortality in comparison with untreated controls", "setting": "[5]", "value": "at least 75%"}
    ]}
  ]
}
